{"source": "PubChem BioAssay AID504744 (Drosophila RNAi Screening Center, 2011)", "assay": "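Find genes whose loss alters insulin-driven dAkt phosphorylation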 (primary screen)", "system": "Drosophila Kc167 cells", "knock-down reagent": "long dsRNA against Drosophila genes, 250 ng dsRNA per well of a 384-well plate", "time to read-out": "3 days of knock-down, then overnight serum-free starvation before stimulation", "conditions": "bovine insulin at 387 nM for 10 minutes after 12 h without serum", "measurement": "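In-cell antibody fluorescence for phospho-dAkt in each well over DNA-dye signal, with log2 residuals expressed as z-scores adjusted for cell count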", "call rule": "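Under insulin, a gene counts as a hit if the average z-score of two replicates lies above 2.5 or below -2.5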", "note": "The deposit covers about 23,000 reagents; shown is a random part of those with a known target gene and a result. Of all reagents, 98 (0.43%) are marked active. 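Only hit calls are given; the phospho-dAkt signals, z-scores and hit direction were not deposited.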 The numbers tell different reagents against one gene apart. Names joined by + are all predicted targets of the reagent."}
{"Gene": "CG31647 (retired record)", "reagent": 1, "outcome": "inactive"}
{"Gene": "rpk (ripped pocket)", "reagent": 1, "outcome": "inactive"}
{"Gene": "rpk (ripped pocket)", "reagent": 2, "outcome": "inactive"}
{"Gene": "CG13177", "reagent": 1, "outcome": "inactive"}
{"Gene": "CG11007", "reagent": 1, "outcome": "inactive"}
{"Gene": "CG9672", "reagent": 1, "outcome": "inactive"}
{"Gene": "CG15772", "reagent": 1, "outcome": "inactive"}
{"Gene": "CG12644 (retired record)", "reagent": 1, "outcome": "inactive"}
{"Gene": "HBS1", "reagent": 1, "outcome": "inactive"}
{"Gene": "CG7857", "reagent": 1, "outcome": "inactive"}
{"Gene": "cass (cassowary)", "reagent": 1, "outcome": "inactive"}
{"Gene": "CG11841", "reagent": 1, "outcome": "inactive"}
{"Gene": "CG34109", "reagent": 1, "outcome": "inactive"}
{"Gene": "CG34109", "reagent": 2, "outcome": "inactive"}
{"Gene": "CG34109", "reagent": 3, "outcome": "inactive"}
{"Gene": "CG13775", "reagent": 1, "outcome": "inactive"}
{"Gene": "trus (toys are us)", "reagent": 1, "outcome": "inactive"}
{"Gene": "LSm7 (Like Sm 7)", "reagent": 1, "outcome": "inactive"}
{"Gene": "lncRNA:CR30055 (long non-coding RNA:CR30055)", "reagent": 1, "outcome": "inactive"}
{"Gene": "Obp83a (Odorant-binding protein 83a)", "reagent": 1, "outcome": "inactive"}
{"Gene": "NfI (Nuclear factor I)", "reagent": 1, "outcome": "inactive"}
{"Gene": "CG14190", "reagent": 1, "outcome": "inactive"}
{"Gene": "Gasz", "reagent": 1, "outcome": "inactive"}
{"Gene": "CG17636", "reagent": 1, "outcome": "inactive"}
{"Gene": "mthl9 (methuselah-like 9)", "reagent": 1, "outcome": "inactive"}
{"Gene": "CG17140 + CG17139", "reagent": 1, "outcome": "inactive"}
{"Gene": "CG17140 + CG17139", "reagent": 2, "outcome": "inactive"}
{"Gene": "Qsox3 (Quiescin sulfhydryl oxidase 3)", "reagent": 1, "outcome": "inactive"}
{"Gene": "ninaG", "reagent": 1, "outcome": "inactive"}
{"Gene": "Act87E (Actin 87E)", "reagent": 1, "outcome": "inactive"}
{"Gene": "Dus1 (Dihydrouridine synthase 1)", "reagent": 1, "outcome": "inactive"}
{"Gene": "RpL37-2 (Ribosomal protein L37-2)", "reagent": 1, "outcome": "inactive"}
{"Gene": "Sb (Stubble)", "reagent": 1, "outcome": "inactive"}
{"Gene": "Boh2 (Buddy of Hmr 2)", "reagent": 1, "outcome": "inactive"}
{"Gene": "CG13060", "reagent": 1, "outcome": "inactive"}
{"Gene": "CG30403", "reagent": 1, "outcome": "inactive"}
{"Gene": "CG7497", "reagent": 1, "outcome": "inactive"}
{"Gene": "CG10581", "reagent": 1, "outcome": "inactive"}
{"Gene": "CG4988", "reagent": 1, "outcome": "inactive"}
{"Gene": "CG42241 (retired record)", "reagent": 1, "outcome": "inactive"}
{"Gene": "ktub (king tubby)", "reagent": 1, "outcome": "inactive"}
{"Gene": "CG31643", "reagent": 1, "outcome": "inactive"}
{"Gene": "miple1 (midkine and pleiotrophin 1)", "reagent": 1, "outcome": "inactive"}
{"Gene": "CG32259", "reagent": 1, "outcome": "inactive"}
{"Gene": "CG3356", "reagent": 1, "outcome": "inactive"}
{"Gene": "CG6216", "reagent": 1, "outcome": "inactive"}
{"Gene": "abo (abnormal oocyte)", "reagent": 1, "outcome": "inactive"}
{"Gene": "RecQ5 (RecQ5 helicase)", "reagent": 1, "outcome": "inactive"}
{"Gene": "CG2574", "reagent": 1, "outcome": "inactive"}
{"Gene": "Sox21b", "reagent": 1, "outcome": "inactive"}
{"Gene": "Sox21b", "reagent": 2, "outcome": "inactive"}
{"Gene": "Sox21b", "reagent": 3, "outcome": "inactive"}
{"Gene": "CG4496", "reagent": 1, "outcome": "inactive"}
{"Gene": "Efhc1.2 (EF-hand domain containing 1.2)", "reagent": 1, "outcome": "inactive"}
{"Gene": "Usp10 (Ubiquitin specific protease 10)", "reagent": 1, "outcome": "inactive"}
{"Gene": "Usp10 (Ubiquitin specific protease 10)", "reagent": 2, "outcome": "inactive"}
{"Gene": "CG31248", "reagent": 1, "outcome": "inactive"}

In a second layout: entries from further up
Gene	reagent	outcome
CG32259	1	inactive
CG3356	1	inactive
CG6216	1	inactive
abo (abnormal oocyte)	1	inactive
